This passage reports binding results from paper PMC3753316.

Protein sequences, listed by entry. Tags and fused reporters are not part of them. Lines headed by an entry give the natural chain unless they say otherwise; changes in a name come on top. Chains listed by the source or under a name are the forms on record and can include a tag or linker. Residues count along the entry.
GST-VWF-A2 fusion protein (amino acids P1480-G1672) (P04275, residues 1480-1672): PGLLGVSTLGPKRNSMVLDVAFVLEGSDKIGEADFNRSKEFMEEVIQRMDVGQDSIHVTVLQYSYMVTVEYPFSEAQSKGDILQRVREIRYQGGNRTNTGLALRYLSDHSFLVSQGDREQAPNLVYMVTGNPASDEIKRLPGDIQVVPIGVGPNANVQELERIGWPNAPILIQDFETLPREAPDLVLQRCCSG
recombinant His-tagged VWF-A3 domain (amino acids S1671-G1874) (P04275, residues 1671-1874): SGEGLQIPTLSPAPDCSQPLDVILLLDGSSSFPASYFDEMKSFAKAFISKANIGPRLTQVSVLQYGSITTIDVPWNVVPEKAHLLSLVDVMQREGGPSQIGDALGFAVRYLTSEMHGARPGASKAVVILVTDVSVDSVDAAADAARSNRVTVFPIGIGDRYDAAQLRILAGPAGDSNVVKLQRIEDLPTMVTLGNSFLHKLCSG
UniProt P08603: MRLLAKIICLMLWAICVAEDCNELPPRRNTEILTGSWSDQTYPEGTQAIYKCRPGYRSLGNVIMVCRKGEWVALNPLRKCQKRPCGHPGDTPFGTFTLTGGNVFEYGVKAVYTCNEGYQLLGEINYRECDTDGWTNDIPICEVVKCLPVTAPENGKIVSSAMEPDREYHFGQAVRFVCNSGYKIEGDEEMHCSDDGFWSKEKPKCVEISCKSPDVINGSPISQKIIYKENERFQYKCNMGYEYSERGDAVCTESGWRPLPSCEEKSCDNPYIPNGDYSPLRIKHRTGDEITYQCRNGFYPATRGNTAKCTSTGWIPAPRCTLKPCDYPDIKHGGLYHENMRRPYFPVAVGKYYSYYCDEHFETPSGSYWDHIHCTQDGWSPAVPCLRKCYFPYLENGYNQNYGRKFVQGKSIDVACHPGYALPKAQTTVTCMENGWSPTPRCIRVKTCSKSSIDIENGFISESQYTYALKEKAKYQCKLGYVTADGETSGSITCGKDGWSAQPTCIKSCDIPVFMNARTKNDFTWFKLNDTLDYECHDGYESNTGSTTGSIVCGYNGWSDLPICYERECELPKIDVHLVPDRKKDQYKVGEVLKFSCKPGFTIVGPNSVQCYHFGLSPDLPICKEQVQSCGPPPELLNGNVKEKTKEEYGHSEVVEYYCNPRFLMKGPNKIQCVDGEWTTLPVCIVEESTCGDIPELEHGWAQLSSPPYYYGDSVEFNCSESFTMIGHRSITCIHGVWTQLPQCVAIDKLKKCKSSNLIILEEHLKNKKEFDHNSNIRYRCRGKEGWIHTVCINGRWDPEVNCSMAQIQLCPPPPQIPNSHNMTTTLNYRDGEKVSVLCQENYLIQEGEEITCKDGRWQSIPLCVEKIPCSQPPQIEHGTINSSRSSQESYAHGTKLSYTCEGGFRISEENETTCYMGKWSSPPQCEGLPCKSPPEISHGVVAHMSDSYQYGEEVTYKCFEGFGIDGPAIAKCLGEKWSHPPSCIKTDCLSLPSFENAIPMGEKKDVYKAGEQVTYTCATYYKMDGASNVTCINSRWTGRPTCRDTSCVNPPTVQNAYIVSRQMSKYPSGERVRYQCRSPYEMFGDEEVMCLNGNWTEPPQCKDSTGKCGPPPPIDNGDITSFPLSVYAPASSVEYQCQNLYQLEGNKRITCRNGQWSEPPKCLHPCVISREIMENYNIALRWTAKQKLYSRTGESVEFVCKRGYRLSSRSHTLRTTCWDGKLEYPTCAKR

Results are given in words; binding and its absence hold for the method and conditions named.

Experiment [1] addresses recombinant His-tagged VWF-A3 domain (amino acids S1671-G1874) (human) (UniProt P04275). The experiment in a line: SPR; Biacore 3000, 25 C; VWF-A2 (1000 RU) or VWF-A3 (800 RU) immobilised; fH 40 to 640 nM, 20 uL/min; for VWF-A2 responses at equilibrium fitted to a one-site binding isotherm; both purified.
Experiment [2] addresses plasma purified human factor H (human) (UniProt P08603). The experiment can be described thus: co-IP; plasma-purified fH (30 nM) incubated with His-tagged VWF-A1, -A2 (E. coli or HEK 293), -A3 or Myc-tagged VWF-BC (100 nM); precipitated with anti-fH antibody or IgG; blot anti-VWF; both purified.
Experiment [3] has the same target. The experiment in a line: ELISA; plasma-purified fH (30 nM) coated on the plate; VWF-A1, -A2, -A3 (200 nM each) or VWF (5 ug/ml) incubated 2 h at room temperature, in some experiments with ristocetin (0.5 mg/ml); detected by anti-His or anti-VWF; both purified.
The next experiment concerns the target ovalbumin (UniProt P01012). The experiment can be described thus: SPR; Biacore; F1, F2, F3 or F4 at 10 ug/ml injected for 60 s over immobilised VWF-A2, VWF or ovalbumin (negative control), dissociation 2 min; both purified. A general note: SPR reads the build-up and loss of mass on a sensor chip optically.
Experiment [4] deals with GST-VWF-A2 fusion protein (amino acids P1480-G1672) (human) (UniProt P04275). The experiment in a line: pull-down; GST-VWF-A2 (100 nM) incubated with recombinant F4, F3, F2 or F1 (30 nM each); glutathione agarose beads, overnight 4 C; blot polyclonal or monoclonal (90X) anti-fH; both purified.

Turning to “plasma purified human factor H (from UniProt P08603 19-1231)”, in experiment [1], the binding result is recorded as “no binding (tested: 640 nM)”.

As to “recombinant His-tagged VWF-A3 domain (amino acids S1671-G1874) (from UniProt P04275 1671-1874) (domain or fragment)”, the binding result was “no binding (tested: 100 nM)” in experiment [2] and “no binding (tested: 200 nM)” in experiment [3].

Take “recombinant full-length wild type human fH (F4 with SCRs 1-20, amino acids M1-R1231) (from UniProt P08603 19-1231)”: the binding result with ovalbumin is “no binding”.

For the substance “truncated fH F1 with SCRs 1-5, amino acids M1-K323 (from UniProt P08603 19-323) (domain or fragment)”, the values for the binding entry (in the experiment with ovalbumin; in experiment [4]) were “no binding” and “no binding (tested: 30 nM)”, respectively.

Turning to “truncated fH F2 with SCRs 1-10, amino acids M1-E625 (from UniProt P08603 19-625) (domain or fragment)”, in the experiment with ovalbumin, the binding entry was “no binding”.

“truncated fH F3 with SCRs 1-15, amino acids M1-G928 (from UniProt P08603 19-928) (domain or fragment)”: the binding result in the experiment with ovalbumin is “no binding”.
